Measured values from PubChem BioAssay AID1347423 (Functional Genomics Laboratory (NCATS/FGL), 2020).
In all, about 52,000 sequences went through this assay and about 210 (0.4%) were called active.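 The calls were made as follows: active = gene whose silencing raises cell survival under the drug, median off-target-corrected z-score across its silencing RNAs 2 or more; inactive = the rest.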 Some of the results follow.

Test: Resistance to Poly (ADP-Ribose) Polymerase inhibitor: Gene Identification via Genome-wide siRNA Screen
Settings: mouse BRCA2 R2336H ES cells, olaparib, CellTiter-Glo viability; hits give high values
Summary of the method: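 Mouse BRCA2 R2336H ES cells were reverse-transfected with siRNA (20 nM final), treated at 48 h with 500 nM olaparib, and read by CellTiter-Glo after 72 h. Scores: MAD-based z per siRNA, median per gene, seed off-target correction.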

Sequence	z-score
GGGACAGAUUUUGAACUGATT against Cd2	inactive: -1.5
GGGUCAGUCCUGGUUUUAUTT against BC003251	inactive: 0.727
GGUCACUAAAUCCUGUACATT against V1rc2	inactive: -0.838
GCUUAUCAGGAAAUACAGGTT against BC043098	inactive: -0.61
CCUUUAAGUACACUUGUGUTT against Oas1c	inactive: -0.132
GGGACUGACGUAUAAAUACTT against Dnase2a	inactive: -0.685
GGGACACUACCCUGAUGAUTT against V1rh8	inactive: 0.188
GGUAACCCACUUCCUUCCUTT against Fgf4	inactive: -1.66
GGCAUUGUAUUUAACACACTT against Aass	inactive: -0.31
GGUUCAACGACCUUCGAUUTT against Runx3	inactive: 1.44
GGCAAUGUACAGAUACUUGTT against A430089I19Rik	inactive: -1.57
CGUACCAGGAUUUUGAUAUTT against Adam17	inactive: -0.0986
GCUCCAUCUACAAACAAUGTT against Gpr37l1	inactive: -0.822
GGACCAUGAGUUACCGCAUTT against Plaur	inactive: 0.377
GCAACUCUAUCACUAAACUTT against Il2ra	inactive: -0.563
GCAAAGUCUAAGUUCUAUGTT against Osbpl5	inactive: -0.788
GCAAGACUGAAAAUCCUGATT against MGC117751	inactive: -0.12
GGCUCUGAUCUUGAACUAATT against 9030603L14Rik	inactive: -0.534
GGGAUCUACAUAUGAGGAATT against 1110007F12Rik	inactive: -1.09
CGAUGGAAAACCUCACAUCTT against Oaz2	inactive: 0.914
GCAUGUUCUUUGUCACCUGTT against Htr6	inactive: 0.89
GGAGAAGAAGAAAAAGUCATT against BC005537	inactive: 0.252
GGCAGAAAAUUUUAACCAATT against Axot	inactive: -0.22
GGAGAUGCUAUAGAUGAAATT against Il20	inactive: 0.442
GCUGUAUAACGAGAUUGAATT against 1700113I22Rik	inactive: -0.292
GGGACAAGUUGAAUAAAAUTT against 4930442L21Rik	inactive: 0.178

Sequence	z-score
GGUUACCUAUUACAUCAUATT against Pcdhgb4	inactive: 0.5
GCACUGGACAUUGUACACCTT against Caskin1	inactive: 1.7
GGACAAGUUCAUAAAGAGATT against Cyp2r1	inactive: -0.549
UUUGCAUGUACAGAAUGCUTT against Olfr312	inactive: 1.36
GGAAGUACAAUGCAGAUUGTT against V2R2	inactive: -0.93
CCUGAUCUUCUGUGAUAGCTT against Olfr881	inactive: 1.03
GGUGUCAGAAGCAGUGUAUTT against Treml1	inactive: -0.988
GGCUGACCUUCUGUGCUGATT against Olfr876	inactive: -0.147
GCUGGUCAAGGGUCUAGAGTT against Saa3	inactive: -1.96
GGAGACAGCACAAGUCCUGTT against H2-M10.2	inactive: 0.292
CAUAGAGUGCCUGAUUUUATT against Olfr438	inactive: -0.238
CCCUGUGGGCCUUUAGUAUTT against 2900036K24Rik	inactive: 0.05
CCCAACAACCAACUAUUUUTT against Kcna1	inactive: -1
GCGUGAUAGAGCUUUAUCUTT against Slc16a7	inactive: 1.61
GGCUGGCAUCACCAUCAAATT against Kit	inactive: 1.85
CGUGGAUAAAGAUAACCCGTT against Sssca1	inactive: 0.12
GGAGAUCUUCAAUAUGUUATT against Supt6h	inactive: -0.396
GGAGCACAGGAAAAUAUAUTT against Mdm2	inactive: -1.97
GGAGGCUCUCACCGUAAACTT against Ttc7	inactive: 0.475
GGAGCGUAGCAUUUGCAUATT against Gcnt2	inactive: -0.051
CGUUUAAAGACUAGCAAGATT against Map3k7ip1	inactive: -0.656
GGGCAUAAUGGUUUUUAUGTT against Hist1h3c	inactive: -0.04
GGUGAGAGGCAGCUCAAGATT against D330023I21Rik	inactive: -0.0209
GGACUGCUUACCUAAAAGUTT against Insig1	inactive: -0.327
GGCCCAUAAGUCCUUCACCTT against AI449705	inactive: -0.171
GCUGGGUCUAAACUGUGCCTT against Cpsf2	inactive: 0.154

Sequence	z-score
GACUGUUUUACAUUCCACATT against Klra21	inactive: -1.07
GCAUGCUUCGCGUAUGCAATT against Gpr151	inactive: 0.745
GGAGGACCAGUGCAUCUUUTT against 3230401K02Rik	inactive: 0.832
GCGAUUUCGUCUUCUGUUGTT against Wdr5b	inactive: -0.522
GGCCGUAAUAUCUCCUCCUTT against Krt1-13	inactive: 0.826
GGUCCACAUAUCUGACUGATT against AY314008	inactive: -1.01
GGCAACAAGGUCCUUUAAGTT against Mllt3	inactive: -0.295
GGGAAACUGGUACAGUACATT against Es1	inactive: -1.31
GCUUACCCUGACUCCAAUUTT against Dhx33	inactive: 0.714
CCACAAGAUUGUUUCAGAATT against A530050P17Rik	inactive: 1.62
GGAGUUGAUUGAGGUAAAGTT against Mettl3	inactive: 1.09
GCACAGACAUGAAGUACCGTT against Tcea3	inactive: 0.179
GCUGAGUUGACUCCUACUGTT against Mcpt1	inactive: 1.31
GCCCACUUUGUUUAGUUAATT against Lancl1	inactive: 0.147
CCAUGAGUUCAGAUGAUGATT against 4921521J11Rik	inactive: -2.93
GCUUAAUGCUAGGUUACAATT against Kng2	inactive: 0.072
GCAGCUGUCCGUAUAUCUUTT against Uxt	inactive: -0.0551
GGCCUGUAUUCUGCUCUGUTT against Olfr341	inactive: -1.43
GGCAGAUCUAUUUAUGGUATT against 4921510H08Rik	inactive: 1.45
CGAAGAUUGCUUCACAGGCTT against 1700008E09Rik	inactive: 0.133
CCCUGGACUAAGGAUCACCTT against Cops5	inactive: -1.45
GGGUAUCAAGUAUAUCUCUTT against C530030I18Rik	inactive: 0.85
GGAGAAACGGAAGGAAAAGTT against Rpl13a	inactive: -3.42
GCAAUUGACCAGAUUUGUGTT against Npr1	inactive: 0.419
GCAUCGUGGAACCUAAAGATT against Rps3	inactive: -3.02
CCCAAUUAAUGAUCACCCATT against 2010305C02Rik	inactive: 1.84

Part of the list above in a different format.
Sequence,z-score
GGCCGUAAUAUCUCCUCCUTT against Krt1-13,inactive: 0.826
GGUCCACAUAUCUGACUGATT against AY314008,inactive: -1.01
GGCAACAAGGUCCUUUAAGTT against Mllt3,inactive: -0.295
GGGAAACUGGUACAGUACATT against Es1,inactive: -1.31
GCUUACCCUGACUCCAAUUTT against Dhx33,inactive: 0.714
CCACAAGAUUGUUUCAGAATT against A530050P17Rik,inactive: 1.62
GGAGUUGAUUGAGGUAAAGTT against Mettl3,inactive: 1.09
GCACAGACAUGAAGUACCGTT against Tcea3,inactive: 0.179
GCUGAGUUGACUCCUACUGTT against Mcpt1,inactive: 1.31
GCCCACUUUGUUUAGUUAATT against Lancl1,inactive: 0.147
CCAUGAGUUCAGAUGAUGATT against 4921521J11Rik,inactive: -2.93
GCUUAAUGCUAGGUUACAATT against Kng2,inactive: 0.072
GCAGCUGUCCGUAUAUCUUTT against Uxt,inactive: -0.0551
GGCCUGUAUUCUGCUCUGUTT against Olfr341,inactive: -1.43
GGCAGAUCUAUUUAUGGUATT against 4921510H08Rik,inactive: 1.45
CGAAGAUUGCUUCACAGGCTT against 1700008E09Rik,inactive: 0.133
CCCUGGACUAAGGAUCACCTT against Cops5,inactive: -1.45
GGGUAUCAAGUAUAUCUCUTT against C530030I18Rik,inactive: 0.85
GGAGAAACGGAAGGAAAAGTT against Rpl13a,inactive: -3.42
GCAAUUGACCAGAUUUGUGTT against Npr1,inactive: 0.419
GCAUCGUGGAACCUAAAGATT against Rps3,inactive: -3.02
CCCAAUUAAUGAUCACCCATT against 2010305C02Rik,inactive: 1.84

(listing goes on)

Sequence	z-score
GGUGCUGACUGGUCAGAUGTT against Lass1	inactive: 0.276
GCACAAUAAUAAUGACACUTT against AI597479	inactive: -0.493
CGAAGGCUUUUGAAUUCAATT against Gm78	inactive: 1.03
CCUCACCUAUGGUACUUUCTT against MGI:3576664	inactive: -0.323
GGAGAAUUAGAAGUUUCUGTT against B930008I02Rik	inactive: 1.17
GCCAACGCACAUAAUAAAGTT against Grim19	inactive: 0.253
GGACUAAAUGGUCAAGAUUTT against Rbm8	inactive: -3.1
CGAAACGGAAGGUGGAGGUTT against Htatip	inactive: -0.764
GGCAUCCUGUUGAAACUGATT against AI854408	inactive: -0.949
GGGUUCAAGAUAUCAAGUATT against 4933434E20Rik	inactive: 0.755
GGAGUCAACUUGUGAGGGUTT against Lrp8	inactive: -0.166
CGACGGAGUCAGUUAAAACTT against Psmd12	inactive: -3.52
GCUGCCUCCUUAGGUGUUATT against A930018P22Rik	inactive: 1.33
GGGAGGAUAUUUUUUUGAATT against 9930013L23Rik	inactive: -0.438
GCAGUGUGAUGGGACUGUATT against Aga	inactive: -0.434
GCUGGUCUUUCAAGUCAAGTT against Stat5b	inactive: 2.97
GGUUACUAUGUGAAGAUUUTT against C130068O12Rik	inactive: 0.0787
CCAAGGGUUAAGUCUUCAUTT against Zranb1	inactive: 0.899
GGUGAUAAAGGGCAAAUGATT against 0610009I22Rik	inactive: -0.634
GGAAGAAGCAGAAGAACAUTT against Rpl12	inactive: -3.1
GCUGAUUAAUGAAGAAGCUTT against Kpna6	inactive: -0.422
CCUUCAAAUGUGGGAGUCCTT against 2310004L02Rik	inactive: -0.945
GGUGAUGCGCCUGAAGGAUTT against Ntng2	inactive: -0.669
GGUCAACCAGAAACUUUACTT against Acvr1	inactive: -0.868
GGAAAGAAACUUUCUCUUUTT against Cdkn2d	inactive: -0.057
GGUUGUGGCUGCUACUAUUTT against Pira1	inactive: 0.276
